# Percent effect of library compounds

From ChEMBL document CHEMBL3988442, “University of Dundee, Small-Polar-MMV Screening Library” (2021).

Each number is a percent effect as filed. How 0% and 100% were set is not recorded. Most values in the screen are low, and negative values occur. This is an unselected part of the compounds tested. Two or more numbers in one place are separate tests of the same structure; such repeats can differ widely.

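Whole-cell growth test on Mycobacterium tuberculosis, read after 4 days in a medium based on cholesterol and the lipid DPPC; the read-out is not stated. Concentration: 50 µM. Direction is inferred from retests: higher values go with more growth inhibition. About 69,000 compounds were tested under these conditions; 0.54% (about 370) showed 50% or more at least once.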

| SMILES | percent effect |
|---|---|
| `c1cnn(CC2CCCN2Cc2nc(C3CC3)no2)c1` (stereo not shown) | -20.84% |
| `O=C(O)c1cccc(N2C[C@H](NC(=O)C3CCOCC3)[C@@H](C3CC3)C2)n1` | 0.5329% |
| `Cc1nnsc1C(=O)N(C)Cc1nc(-c2ccccn2)no1` | -14.98% |
| `O=C(O)C(F)(F)F.O=C(O)C(F)(F)F.c1cnc(N2CCOC3(CCCN(c4cnccn4)C3)C2)nc1` (stereo not shown) | 10.33% |
| `COCCN(Cc1ccccc1)Cc1csc(-c2ncccn2)n1` | 5.222% |
| `CC(NCCCn1ccnc1)c1ccc(N2CCOC2=O)cc1` (stereo not shown) | -14.48% |
| `CCc1cnc(CN(C)C2CCN(CC3CCC3)C2)o1` (stereo not shown) | -3.133% |
| `Cc1cc(C(=O)N2CCc3c(ncn3CCc3ccccc3)C2)on1` | 3.205% and -1.514% |
| `CCn1nc(CNC(=O)C2CCCN(C(=O)COC)C2)c2ccccc21` (stereo not shown) | -4.159% |
| `Cc1ncc2c(n1)CN(Cc1nc(Cc3ccccc3)no1)CC2` | 0.4307% |
| `O=C(CN1CCN(C(=O)c2ccccc2)CC1)Nc1ccc(Br)cn1` | 11.1% |
| `O=C(O)C(F)(F)F.O=C(O)C(F)(F)F.[H][C@@]12CCN(c3ccncn3)C[C@@]1([H])O[C@@H](C(=O)NCc1cccnc1)C2` | 3.91% |
| `CCc1nnc2n1CCN(C(=O)c1csc(-c3cnn(C)c3)n1)C2` | 6.069% |
| `CNc1cc(C2CN(Cc3cccnc3NC)CCO2)nc(C)n1` (stereo not shown) | 16.98% |
| `Cc1nccn1C1CCCN(C(=O)c2ccc3c(c2)NC(=O)CO3)C1` (stereo not shown) | -15.86% |
| `Cc1c(Br)cc2c(c1C)OCC(N(C)C)C2=O` (stereo not shown) | -27.54% |
| `Cc1nc(CN2CCc3ncnc(-c4cccnc4)c3CC2)cs1.O=C(O)C(F)(F)F.O=C(O)C(F)(F)F` | -75.23% |
| `CNC(=O)c1cccc(C2CNCCN2C)c1` (stereo not shown) | -18.63% |
| `[H][C@@]12C[C@H](c3nc(C)no3)CN(S(=O)(=O)CCC)[C@]1([H])CCO2` | 1.293% |
| `CCOCCCn1c(NC(=O)c2cnc(C)cn2)nc2ccccc21` | -21.64% |
| `COc1cccc(OC2CN(C(=O)c3cc(CC(C)C)nn3C)C2)c1` | 15.89% |
| `O=C(O)C(F)(F)F.[H][C@@]12OCCN(C(=O)c3ccc(C)o3)[C@@]1([H])CC[C@H]2OCCN(C)C` | 3.624% |
| `O=C(NC(CN1CCCC1)c1ccccc1)c1c(O)cc(F)cc1F` (stereo not shown) | -9.348% |
| `CCn1ccnc1C1CCN(C(=O)Nc2ccc(OC)cc2)CC1` | -40.24% |
| `O=C(O)C(F)(F)F.O=C(O)C(F)(F)F.[H][C@@]12CCN(Cc3ccccn3)C[C@]1(C(=O)N1CCCO1)CCO2` | -12.66% |
| `NC(=O)c1csc(N2CCCC(c3n[nH]c(=O)n3-c3ccccc3)C2)n1` (stereo not shown) | 3.579% |
| `[H][C@]12CC[C@]([H])(CN(S(C)(=O)=O)C1)N(C(=O)c1csc(NC)n1)C2` | -12.95% and -3.05% |
| `CCc1nc(-c2cncnc2C2CCCNC2)no1.Cl` (stereo not shown) | 11.39% and 8.775% |
| `Cc1cc(N2CCC(N(C)C(=O)c3ccc(C#N)cc3)CC2)nc(C)n1` | -8.474% |
| `COc1ccccc1OCCC(=O)NCc1ncc(C)c(OC)c1C` | 21.59% |
| `CCn1cnnc1CN(C)Cc1c[nH]nc1-c1ccc(F)cc1` | -7.468% |
| `CCN(CC1CN(Cc2cccc(C#N)c2)CCO1)c1cccnn1` (stereo not shown) | 3.588% and -2.237% |
| `CC(=O)Nc1ccc(CNC(=O)CNCc2sc(C)nc2C)cc1` | 13.66% |
| `CCOc1ccc(C#N)cc1NC(=O)N1CCOC(C(N)=O)C1` (stereo not shown) | -18.76% |
| `CCS(=O)(=O)N1CCC2(CC1)CN(C(=O)N(C)C)Cc1ccccc12` | 10.73% |
| `COc1ccc(Cn2cc(C(C)O)nn2)cc1` (stereo not shown) | -24.11% |
| `CCn1nc(C)cc1C(=O)N1CCCN(CCCc2ccccc2)CC1` | 2.542% and -3.74% |
| `COC(=O)c1ccc(NC(=O)CCc2ccco2)cc1` | 1.947% |
| `Cc1ncsc1CCN(C)C(=O)c1ccc(Cn2cnnn2)cc1` | 15.53% |
| `COCC1CN(CC2CCOCC2)Cc2cn(CC3CCCC3)nc21` (stereo not shown) | 9.374% |
| `CC(Oc1ccccc1C(F)(F)F)C(=O)NCC(N)=O` (stereo not shown) | 2.588% and 14.19% |
| `O=C(c1ccc[nH]1)N1CCOCC2(C1)CN(c1ccccc1)C(=O)CO2` (stereo not shown) | -14.26% |
| `Cn1c(=O)n(C)c2nc(Br)c(CC(=O)c3ccccc3)n2c1=O` | -40.61% |
| `O=C(O)C(F)(F)F.O=C(O)C(F)(F)F.O=C(O)C(F)(F)F.[H][C@@]12COC[C@]1(COc1ccccn1)CN(Cc1cccnc1OC)C2` | 11.24% |
| `CCc1cnc(CNc2cccc3c2CCN(S(=O)(=O)CC)C3)o1` | 1.759% |
| `CNC(=O)C1CCN(c2ncnc3c2CCN(C(=O)C2CC2)C3)C1` (stereo not shown) | -9.377% |
| `CC(C)N1CCC(C(=O)N2CCc3c(nc(CC4CC4)[nH]c3=O)C2)CC1` | 16.02% |
| `O=C(c1cc[nH]n1)N1CCOCC2(C1)CN(c1ccccc1)C(=O)CO2` (stereo not shown) | -8.947% |
| `COCCN1CCC(NCc2cccc(C)c2)C1` (stereo not shown) | -22.48% |
| `Cc1cc(NCCC(=O)NC(C)C)nc(-c2ccncc2)n1` | 17.65% |
| `O=C(O)C(F)(F)F.[H][C@@]12OCCN(CC3CCOCC3)[C@@]1([H])CC[C@H]2OCC1CCCC1` | -10.06% |
| `Cc1nc(CC2CCCN(Cc3nc4ccccc4c(=O)[nH]3)C2)no1` (stereo not shown) | 5.698% |
| `CCCc1ccc(C(=O)N2CCc3c(nc(N(C)C)[nH]c3=O)C2)cc1` | 0.01653% |
| `Cc1cc2ccccc2n1CCC(=O)NCCN(C)S(C)(=O)=O` | -1.278% |
| `NC(=O)c1ccc(N2CCN(Cc3cccc4nsnc34)CC2)nc1` | 7.415% |
| `O=C(O)C(F)(F)F.O=C(O)C(F)(F)F.O=C(O)C(F)(F)F.[H][C@@]12CCN(Cc3ccccn3)C[C@]1([H])[C@@H](CN(C)Cc1ccco1)OC2` | 3.554% |
| `O=C(CCC(=O)N1CCCC1c1cccs1)N1CCc2sccc2C1` (stereo not shown) | 0.1625% |
| `CO[C@H]1C[C@@H](O)C12CCN(C(=O)CCCOc1ccccc1)CC2` | -7.761% |
| `CCCn1cc(C(=O)NCc2nnc(-c3ccc(C)nc3)o2)c(C)n1` | 1.7% |
| `CCOCCN1CCN(CC(=O)N2CCC2)CC1CC` (stereo not shown) | -17.25% |
| `CCCc1nn(C2CCN(C(C)C)C2=O)c(=O)o1` (stereo not shown) | -33.94% |
| `Cn1cncc1CN1CCCC1c1cncc(Oc2ccc(Cl)cc2)n1` (stereo not shown) | 2.892% |
| `[H][C@@]12COC[C@@H](CC(=O)N3CCCC3)[C@]1([H])CN(Cc1ccsc1)C2` | 7.905% |
| `O=C(O)C(F)(F)F.O=C(O)C(F)(F)F.[H][C@]12CCC[C@@H](CN(C)C3CC3)[C@@]1([H])CN(Cc1cccnc1)C2` | 4.376% |
| `COc1cccc(N2CCN(Cc3cccc(CCN)c3)CC2=O)c1` | 8.561% |
| `Cc1cccc(SC2CCN(C(=O)CCCS(N)(=O)=O)CC2)c1` | 11% |
| `O=C(O)C(F)(F)F.[H][C@]12CC[C@@]3(N=C(CC)NC3=O)[C@@]1([H])CN(CC(C)C)C2` | 9.051% |
| `c1ncn(CC2CCCCN2Cc2noc(C3CC3)n2)n1` (stereo not shown) | -28.56% |
| `Cc1ncsc1C(=O)N(C)Cc1ccccc1` | -19.93% |
| `CCN(C)C(=O)c1cccc(S(=O)(=O)NCCc2csc(N)n2)c1` | -22.73% |
| `COCC1CCN(C(=O)c2cc(O)nc(CC(C)C)c2)CC1` | 4.656% |
| `COc1ccc(C(=O)N(CCO)Cc2ccccc2)c(OC)n1` | -31.04% |
| `COc1cc(C(=O)N(Cc2cnn(C)c2)C(C)C)ccc1OC(C)C` | -3.905% |
| `CS(=O)(=O)c1snnc1C1CCCN(Cc2ccncc2)C1` (stereo not shown) | -0.6062% |
| `CN(Cc1cc(C2CC2)[nH]n1)C(=O)C(c1cccnc1)N1CCCC1` (stereo not shown) | 0.1882% |
| `[H][C@@]12CCN(C(=O)c3c(C)noc3C)C[C@@]1([H])O[C@@H](c1ccnc(C)n1)C2` | -2.096% |
| `Cn1cccc1C(O)CNS(=O)(=O)Cc1ccccc1` (stereo not shown) | -14.29% |
| `FC(F)(F)c1ccnc(N2CCCOCC2)c1` | -2.809% |
| `Cn1ncc2c(=O)[nH]c(CN3CCCC3CC(C)(C)C)nc21` (stereo not shown) | -16.66% |
| `CC(c1ccncn1)N(C)S(=O)(=O)NCc1ccccc1` (stereo not shown) | -5.965% |
| `CCOCC(=O)Nc1cc(-c2cccc(F)c2F)n[nH]1` | -7.713% and 0.1837% |
| `COc1ccc2c(c1)OCC(Cc1ccnc(N)n1)C2` (stereo not shown) | -13.53% |
| `COc1ccc(CN2CCC3(CC2)CC(c2cccnc2)CO3)cc1.O=C(O)C(F)(F)F.O=C(O)C(F)(F)F` (stereo not shown) | 4.855% |
| `COc1ccc2c(c1)CN(Cc1ccco1)C(=O)CCN2` | 0.3304% |
| `CCc1nc2c(NCC3COc4cc(OC)ccc4C3)ncnc2o1` (stereo not shown) | 6.683% |
| `O=C(CSc1ccccc1)Nc1cnn(CC(=O)N2CCCO2)c1` | 0.5008% |
| `COc1c(F)cc(-c2cccc3c2OC(CN)C3)cc1F` (stereo not shown) | 22.24% |
| `CCc1noc(CN2CCN(C(=O)OC(C)(C)C)C(C)C2)n1` (stereo not shown) | -8.971% |
| `COCCCNC(=O)Nc1cc(-c2ccccc2C)nn1CCO` | -14.68% |
| `[H][C@@]12CN(c3cccnc3)CC[C@]1([H])CN(c1ncccn1)C2` | -1.018% and -1.15% |
| `OCCN1CCCCC1c1cc[nH]n1` (stereo not shown) | 2.944% |
| `O=C(c1cnc(-c2noc3cc(N4CCCC4)ccc23)s1)N1CCCC1` | 13.1% |

9 of the entries, repeated:

- CCOCCCn1c(NC(=O)c2cnc(C)cn2)nc2ccccc21 | -21.64%
- Cc1nc(CC2CCCN(Cc3nc4ccccc4c(=O)[nH]3)C2)no1 (stereo not shown) | 5.698%
- Cn1cncc1CN1CCCC1c1cncc(Oc2ccc(Cl)cc2)n1 (stereo not shown) | 2.892%
- COc1cccc(OC2CN(C(=O)c3cc(CC(C)C)nn3C)C2)c1 | 15.89%
- O=C(O)C(F)(F)F.O=C(O)C(F)(F)F.[H][C@@]12CCN(c3ccncn3)C[C@@]1([H])O[C@@H](C(=O)NCc1cccnc1)C2 | 3.91%
- CNc1cc(C2CN(Cc3cccnc3NC)CCO2)nc(C)n1 (stereo not shown) | 16.98%
- Cc1nc(CN2CCc3ncnc(-c4cccnc4)c3CC2)cs1.O=C(O)C(F)(F)F.O=C(O)C(F)(F)F | -75.23%
- O=C(O)C(F)(F)F.O=C(O)C(F)(F)F.O=C(O)C(F)(F)F.[H][C@@]12COC[C@]1(COc1ccccn1)CN(Cc1cccnc1OC)C2 | 11.24%
- CNC(=O)C1CCN(c2ncnc3c2CCN(C(=O)C2CC2)C3)C1 (stereo not shown) | -9.377%